The list does not hold the whole screen: it covers a few groups of compounds. Not every dose and run of a compound is shown. T/C gives the treated animals as a percentage of the vehicle group. Some entries give survivors of the animals treated and no T/C: the source holds a T/C of zero for them, seemingly a mark for toxic or unscored doses. Some survivor counts are full or nearly so, which does not show that the dose was tolerated: the source hardly ever lists a survival T/C far under the control, and the zero likely stands for such cases as well. Counts of survivors are from the toxicity check (mostly the fifth day) where no day follows; animals may have died later. Schedules are NCI's codes, taken here to give the interval after Q, in days (D) or hours (H), and the number of doses after X. Where survival is the endpoint, the PubChem record calls one and a half times the control and up active, and a quarter to a half above the control has no call in these data; cut-offs in other NCI protocols can differ. Some entries hold several experiments; the values are given in rising order. Some T/C values are marked as having no survivor count here; that says nothing about deaths at the dose. Some T/C values are followed by the survivors on the day toxicity was checked, most often the fifth; without a count or a note in brackets, all were alive then.
Test system: L1210 leukemia ip in BDF1 mice, survival T/C
Experiment: NCI In Vivo Anticancer Drug Screen. Data for tumor model L1210 Leukemia (intraperitoneal) in B6D2F1 (BDF1) mice
Conditions: T/C endpoint: mean survival time, higher T/C = longer survival
[1] = dose: 50.0 mg/kg/injection, schedule: Q04DX003 (ip), vehicle: saline
[2] = dose: 100.0 mg/kg/injection, schedule: Q01DX001 (ip), vehicle: saline
[3] = dose: 200.0 mg/kg/injection, schedule: Q01DX001 (ip), vehicle: saline
[4] = dose: 100.0 mg/kg/injection, schedule: Q04DX002 (ip), vehicle: saline with Tween-80
[5] = dose: 200.0 mg/kg/injection, schedule: Q04DX002 (ip), vehicle: saline with Tween-80
[6] = dose: 400.0 mg/kg/injection, schedule: Q04DX002 (ip), vehicle: saline with Tween-80

SMILES: ClCCN1CCNCC1
- T/C (dose: 12.5 mg/kg/injection, schedule: Q01DX009 (ip), vehicle: saline): 100 % of control [5 of 6 alive]
- T/C (dose: 12.5 mg/kg/injection, schedule: Q04DX003 (ip), vehicle: saline): 101 % of control
- T/C (dose: 25.0 mg/kg/injection, schedule: Q01DX009 (ip), vehicle: saline): 103 % of control
- T/C (dose: 25.0 mg/kg/injection, schedule: Q04DX003 (ip), vehicle: saline): 113 % of control
- survivor count (dose: 50.0 mg/kg/injection, schedule: Q01DX009 (ip), vehicle: saline): 6 of 6
- T/C [1]: 100 % of control

SMILES: CC(C)=CCN1CCN(CCCl)CC1
- T/C (dose: 25.0 mg/kg/injection, schedule: Q04DX002 (ip), vehicle: saline): 107 % of control
- T/C (dose: 50.0 mg/kg/injection, schedule: Q04DX002 (ip), vehicle: saline): 101 % of control
- survivor count (dose: 100.0 mg/kg/injection, schedule: Q04DX002 (ip), vehicle: saline): 2 of 3
- survivor count (dose: 200.0 mg/kg/injection, schedule: Q04DX002 (ip), vehicle: saline): 0 of 3
- survivor count (dose: 400.0 mg/kg/injection, schedule: Q04DX002 (ip), vehicle: saline): 0 of 3

SMILES: COC(=O)C1(C)COP(=O)(N2CCCCCC2)OC1 (stereo not given)
- T/C [2]: 86 % of control
- T/C [3]: 96 % of control
- T/C (dose: 400.0 mg/kg/injection, schedule: Q01DX001 (ip), vehicle: saline): 94 % of control

SMILES: O=[N+]([O-])c1cc2nc(Cl)[nH]c2cc1[N+](=O)[O-]
- T/C (dose: 5.0 mg/kg/injection, schedule: Q01DX001 (ip), vehicle: carboxymethylcellulose (CMC)): 102 % of control
- T/C (dose: 10.0 mg/kg/injection, schedule: Q01DX001 (ip), vehicle: carboxymethylcellulose (CMC)): 104 % of control
- T/C (dose: 20.0 mg/kg/injection, schedule: Q01DX001 (ip), vehicle: carboxymethylcellulose (CMC)): 96 % of control
- T/C (dose: 40.0 mg/kg/injection, schedule: Q01DX001 (ip), vehicle: carboxymethylcellulose (CMC)): 93 % of control
- T/C (dose: 80.0 mg/kg/injection, schedule: Q01DX001 (ip), vehicle: carboxymethylcellulose (CMC)): 107 % of control
- T/C (dose: 100.0 mg/kg/injection, schedule: Q01DX001 (ip), vehicle: carboxymethylcellulose (CMC)): 102 % of control [3 of 4 alive]
- survivor count (dose: 200.0 mg/kg/injection, schedule: Q01DX001 (ip), vehicle: carboxymethylcellulose (CMC)): 0 of 4
- survivor count (dose: 400.0 mg/kg/injection, schedule: Q01DX001 (ip), vehicle: carboxymethylcellulose (CMC)): 0 of 4

SMILES: C1CCC2(CC1)C[N+]21CCCC1
- T/C [1]: 97 and 102 % of control
- T/C (dose: 100.0 mg/kg/injection, schedule: Q04DX003 (ip), vehicle: saline): 97 and 101 % of control
- T/C (dose: 200.0 mg/kg/injection, schedule: Q04DX003 (ip), vehicle: saline): 105 and 114 % of control

SMILES: O=P(Nc1ccccn1)(N1CC1)N1CC1
- T/C (dose: 2.5 mg/kg/injection, schedule: Q01DX015 (ip), vehicle: saline): 164 % of control
- T/C (dose: 2.9 mg/kg/injection, schedule: Q01DX015 (ip), vehicle: saline): 123 % of control
- T/C (dose: 4.4 mg/kg/injection, schedule: Q01DX015 (ip), vehicle: saline): 147 % of control
- T/C (dose: 5.0 mg/kg/injection, schedule: Q01DX015 (ip), vehicle: saline): 179 % of control
- T/C (dose: 6.0 mg/kg/injection, schedule: Q01DX001 (ip), vehicle: saline): 122 % of control
- T/C (dose: 6.25 mg/kg/injection, schedule: Q01DX001 (ip), vehicle: saline): 108 % of control
- T/C (dose: 6.6 mg/kg/injection, schedule: Q01DX015 (ip), vehicle: saline): 178 % of control
- T/C (dose: 10.0 mg/kg/injection, schedule: Q01DX001 (ip), vehicle: saline): 137 % of control
- T/C (dose: 10.0 mg/kg/injection, schedule: Q01DX015 (ip), vehicle: saline): 194, 214, 271 % of control
- T/C (dose: 12.0 mg/kg/injection, schedule: Q01DX001 (ip), vehicle: saline): 131 % of control
- T/C (dose: 12.5 mg/kg/injection, schedule: Q01DX001 (ip), vehicle: saline): 124 % of control
- T/C (dose: 16.0 mg/kg/injection, schedule: Q01DX001 (ip), vehicle: saline): 157 % of control
- T/C (dose: 16.0 mg/kg/injection, schedule: Q01DX015 (ip), vehicle: saline): 164 % of control
- T/C (dose: 20.0 mg/kg/injection, schedule: Q01DX015 (ip), vehicle: saline): 120 % of control
- T/C (dose: 24.0 mg/kg/injection, schedule: Q01DX001 (ip), vehicle: saline): 156 and 162 % of control
- T/C (dose: 24.0 mg/kg/injection, schedule: Q01DX015 (ip), vehicle: saline): 113 % of control [5 of 6 alive]
- T/C (dose: 25.0 mg/kg/injection, schedule: Q01DX001 (ip), vehicle: saline): 161 % of control
- T/C (dose: 36.0 mg/kg/injection, schedule: Q01DX001 (ip), vehicle: saline): 190 % of control
- T/C (dose: 36.0 mg/kg/injection, schedule: Q01DX015 (ip), vehicle: saline): 86 % of control
- survivor count (dose: 40.0 mg/kg/injection, schedule: Q01DX015 (ip), vehicle: saline): 3 of 6
- T/C (dose: 50.0 mg/kg/injection, schedule: Q01DX001 (ip), vehicle: saline): 126 [3 of 4 alive] and 173 % of control
- T/C [2]: 164 % of control [4 of 6 alive]
- survivor count [2]: 3 of 4
- survivor count [3]: 1 of 4

SMILES: O=Nc1ccc(N(CCCl)CCCl)cc1
- T/C (dose: 66.0 mg/kg/injection, schedule: Q01DX001 (sc), vehicle: olive oil, sesame oil, peanut oil): 102 % of control
- T/C (dose: 66.0 mg/kg/injection, schedule: Q01DX009 (ip), vehicle: saline): 120 % of control
- T/C (dose: 75.0 mg/kg/injection, schedule: Q01DX001 (ip), vehicle: saline): 123 % of control
- T/C (dose: 100.0 mg/kg/injection, schedule: Q01DX001 (sc), vehicle: olive oil, sesame oil, peanut oil): 94 % of control [4 of 6 alive]
- T/C (dose: 100.0 mg/kg/injection, schedule: Q01DX009 (ip), vehicle: saline): 115 % of control
- T/C (dose: 150.0 mg/kg/injection, schedule: Q01DX001 (ip), vehicle: saline): 147 % of control
- survivor count (dose: 150.0 mg/kg/injection, schedule: Q01DX001 (sc), vehicle: olive oil, sesame oil, peanut oil): 0 of 6
- T/C (dose: 150.0 mg/kg/injection, schedule: Q01DX009 (ip), vehicle: saline): 100 % of control
- T/C (dose: 225.0 mg/kg/injection, schedule: Q01DX001 (sc), vehicle: olive oil, sesame oil, peanut oil): 87 % of control
- survivor count (dose: 225.0 mg/kg/injection, schedule: Q01DX009 (ip), vehicle: saline): 6 of 6
- T/C (dose: 300.0 mg/kg/injection, schedule: Q01DX001 (ip), vehicle: saline): 118 % of control

SMILES: C1CCN(P2OCCO2)CC1
- T/C [4]: 105 % of control
- T/C [5]: 102 % of control
- T/C [6]: 94 % of control

SMILES: CN(C)CCCl
- T/C [2]: 104 % of control [survivor count not shown]
- T/C [3]: 96 % of control [survivor count not shown]

SMILES: O=P(Cl)(Oc1ccccc1)c1ccccc1 (stereo not given)
- T/C [4]: 93 % of control
- T/C (dose: 200.0 mg/kg/injection, schedule: Q01DX009 (ip), vehicle: saline with Tween-80): 98 % of control
- T/C [5]: 101 % of control
- T/C (dose: 400.0 mg/kg/injection, schedule: Q01DX009 (ip), vehicle: saline with Tween-80): 88 % of control
- survivor count [6]: 1 of 3

— PubChem BioAssay AID248 (DTP/NCI, 2004)
